Values quoted from earlier work, collected in patent US20250179584A1, “PRECISION THERAPY FOR THE TREATMENT OF CANCER” (Novartis AG, priority 2022, published 2025).
For at least one compound, name, drawing or mass did not settle the structure.

How the values were obtained:
NRAS mutated melanoma = details: 402 patients, cited from earlier work
metastatic melanoma = details: 2L/3L regardless of NRAS mutation after anti-PD-(L)-1 progression; literature values; cited from earlier work
NSCLC = details: in vivo; cited from earlier work

| Structure (SMILES) | ORR (NRAS mutated melanoma; untreated (~79%) and previously treated with immunotherapy (~21%)) [%] | mOS (NRAS mutated melanoma) [months] | mPFS (NRAS mutated melanoma) [months] | ORR (metastatic melanoma) | ORR (NSCLC) [%] | median DoR (NSCLC) [months] |
| --- | --- | --- | --- | --- | --- | --- |
| CN(C)/N=N/c1[nH]cnc1C(N)=O [dacarbazine] | 7 | 10.1 | 1.7 | 7-20% | – | – |
| C=CC(=O)N1CCN(c2nc(=O)n(-c3c(C)ccnc3C(C)C)c3nc(-c4c(O)cccc4F)c(F)cc23)[C@@H](C)C1 [sotorasib] | – | – | – | – | 36 | 10 |
| Cn1nnc2c(C(N)=O)ncn2c1=O [temazolamide] | – | – | – | 13.5% | – | – |
